Measurements from PubChem BioAssay AID256 (DTP/NCI, 2004).
The list does not hold the whole screen: it gathers tests that were run many times, whatever their T/C, doses with no T/C, and many T/C values between a quarter and a half above the control. Other doses and runs of a compound stand elsewhere. T/C is the treated group as % of the vehicle group. For survival time, the PubChem record calls one and a half times the control and up active, and a quarter to a half above the control has no call in these data; cut-offs in other NCI protocols can differ. Schedules are NCI's codes, taken here to give the interval after Q, in days (D) or hours (H), and the number of doses after X. Some T/C values are followed by the survivors on the day toxicity was checked, most often the fifth; where none is given, no animal had died by that day. Some doses were run more than once; their values stand side by side, smallest first. Additions like (4×) say how often a value occurs here.

Test system: CD2F1 mice, L1210 leukemia ip, survival T/C
Experiment: NCI In Vivo Anticancer Drug Screen. Data for tumor model L1210 Leukemia (intraperitoneal) in CD2F1 (CDF1) mice
Conditions: T/C endpoint: mean survival time, higher T/C = longer survival
Outline: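 Each value reflects a quotient of treated over vehicle control outcomes in mice with a transplanted tumor.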

## CN(C)/N=N/c1nc[nH]c1C(N)=O
dose: 25.0 mg/kg/injection, schedule: Q01DX009 (ip), vehicle: other, evaluated on day 30
  T/C: 102, 108, 112, 118, 120 [5 of 6 alive], 121, 122, 124, 125, 128, 129, 131, 134, 142 % of control
dose: 25.0 mg/kg/injection, schedule: Q01DX009 (ip), vehicle: other, evaluated on day 45
  T/C: 133 % of control
dose: 37.5 mg/kg/injection, schedule: Q01DX009 (ip), vehicle: Klucel (hydroxypropylcellulose) (HPC)
  T/C: 143 % of control
dose: 50.0 mg/kg/injection, schedule: Q01DX005 (ip), vehicle: saline, evaluated on day 5
  T/C: 113 and 125 % of control
dose: 50.0 mg/kg/injection, schedule: Q01DX005 (ip), vehicle: saline, evaluated on day 30
  T/C: 113 and 125 % of control
dose: 50.0 mg/kg/injection, schedule: Q01DX007 (ip), vehicle: saline
  T/C: 139 % of control
dose: 50.0 mg/kg/injection, schedule: Q01DX009 (ip), vehicle: DMSO
  T/C: 129 % of control
dose: 50.0 mg/kg/injection, schedule: Q01DX009 (ip), vehicle: Klucel (hydroxypropylcellulose) (HPC)
  T/C: 112, 117 (2×), 121, 122, 124, 125 (2×), 136, 137 (2×), 140, 144, 162 % of control [5 of 6 alive]
dose: 50.0 mg/kg/injection, schedule: Q01DX009 (ip), vehicle: other, evaluated on day 30
  T/C: 118, 128, 130, 133, 133 [5 of 6 alive], 134, 138, 141, 142, 143, 146, 147 (2×), 150, 164 % of control
dose: 50.0 mg/kg/injection, schedule: Q01DX009 (ip), vehicle: other, evaluated on day 45
  T/C: 150 % of control
dose: 50.0 mg/kg/injection, schedule: Q01DX009 (ip), vehicle: saline
  T/C: 131 % of control
dose: 50.0 mg/kg/injection, schedule: Q01DX009 (ip), vehicle: water
  T/C: 127 % of control
dose: 50.0 mg/kg/injection, schedule: Q01DX009 (oral), vehicle: steroid suspending solution
  T/C: 127 % of control
dose: 50.0 mg/kg/injection, schedule: Q03HX024 (ip), vehicle: steroid suspending solution
  T/C: 128 % of control
dose: 50.0 mg/kg/injection, schedule: Q03HX024 (oral), vehicle: steroid suspending solution
  T/C: 134 % of control
dose: 65.0 mg/kg/injection, schedule: Q01DX009 (ip), vehicle: carboxymethylcellulose (CMC)
  T/C: 145 % of control
dose: 75.0 mg/kg/injection, schedule: Q01DX009 (ip), vehicle: Klucel (hydroxypropylcellulose) (HPC)
  T/C: 137 % of control
dose: 91.0 mg/kg/injection, schedule: Q01DX009 (ip), vehicle: Klucel (hydroxypropylcellulose) (HPC)
  T/C: 143 % of control
dose: 100.0 mg/kg/injection, schedule: Q01DX005 (ip), vehicle: other
  T/C: 130 % of control
dose: 100.0 mg/kg/injection, schedule: Q01DX005 (ip), vehicle: saline, evaluated on day 5
  T/C: 139 and 147 % of control
dose: 100.0 mg/kg/injection, schedule: Q01DX005 (ip), vehicle: saline, evaluated on day 30
  T/C: 140 and 147 % of control
dose: 100.0 mg/kg/injection, schedule: Q01DX007 (ip), vehicle: saline
  T/C: 139 % of control
dose: 100.0 mg/kg/injection, schedule: Q01DX009 (ip), vehicle: DMSO
  T/C: 129 and 141 % of control
dose: 100.0 mg/kg/injection, schedule: Q01DX009 (ip), vehicle: Klucel (hydroxypropylcellulose) (HPC)
  T/C: 122, 123, 126, 133, 137 (2×), 140, 145, 146, 148, 153, 154, 166, 210 % of control
dose: 100.0 mg/kg/injection, schedule: Q01DX009 (ip), vehicle: other, evaluated on day 30
  T/C: 111, 138, 141, 142, 143, 145, 149, 150 (2×), 155, 158, 161, 168, 170 % of control (2×)
dose: 100.0 mg/kg/injection, schedule: Q01DX009 (ip), vehicle: other, evaluated on day 45
  T/C: 150 % of control
dose: 100.0 mg/kg/injection, schedule: Q01DX009 (ip), vehicle: saline
  T/C: 125 and 147 % of control
dose: 100.0 mg/kg/injection, schedule: Q01DX009 (ip), vehicle: steroid suspending solution
  T/C: 140 % of control
dose: 100.0 mg/kg/injection, schedule: Q01DX009 (ip), vehicle: water
  T/C: 137 % of control
dose: 100.0 mg/kg/injection, schedule: Q01DX009 (oral), vehicle: steroid suspending solution
  T/C: 148 % of control
dose: 100.0 mg/kg/injection, schedule: Q04DX003 (ip), vehicle: water
  T/C: 125 % of control
dose: 182.0 mg/kg/injection, schedule: Q01DX009 (ip), vehicle: Klucel (hydroxypropylcellulose) (HPC)
  T/C: 127 % of control
dose: 200.0 mg/kg/injection, schedule: Q01DX001 (ip), vehicle: distilled water + Tween-80
  T/C: 127 % of control
dose: 200.0 mg/kg/injection, schedule: Q01DX005 (ip), vehicle: other
  T/C: 138 % of control
dose: 200.0 mg/kg/injection, schedule: Q01DX005 (ip), vehicle: saline, evaluated on day 5
  T/C: 155 and 162 % of control
